Data as given in PubChem BioAssay AID504786 (Drosophila RNAi Screening Center, 2011).

Purpose: 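Fly genes required for HIF-dependent transcription when hypoxia is mimicked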 (primary screen)
Cell system: Drosophila S2 cells with a stable HIF luciferase reporter
Knock-down reagent: long dsRNA against Drosophila genes, about 0.2 µg dsRNA per well of a 384-well plate
Time to read-out: three days of knock-down, then 20 h of DFO before reading
Conditions: desferrioxamine (DFO) at 100 µM, an iron chelator that mimics hypoxia, for 20 h
Measured: 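Firefly luciferase driven by the mouse ldh-a hypoxia-response element, measured after 20 h of 100 µM DFO; z-scores per plate, higher means more signal lost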
Direction: z-score: higher = stronger loss of HIF reporter signal
The screen tested about 21,000 reagents; this is an unselected part of those with a known target gene and a result. 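Primary screen; positive scores mean lost reporter signal, so the sign may be inverted from the usual convention.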 Names joined by + are all predicted targets of the reagent. Further read-outs or replicates are left out here. No sequences are given here.

predicted target | dsRNA | z-score, replicate 1
Lfg | DRSC06853 | -0.2
CG42535 | DRSC09041 | -0.2
wit | DRSC08741 | -0.3
Gbs-70E | DRSC11055 | -0.1
GstT2 | DRSC06244 | -0.3
CG15712 | DRSC06583 | -0.2
CG42375 + CG9288 | DRSC16468 | -0.3
CG43102 | DRSC14797 | -1.2
CG43102 | DRSC16239 | 0.6
Skp2 + CG1103 | DRSC12160 | -0.3
CG10510 | DRSC11614 | -0.2
CDK2AP1 | DRSC19800 | 0.1
CG11231 (retired record) | DRSC17207 | -0.4
Tmem214 | DRSC02924 | 0.7
Tmem214 | DRSC02925 | -0.2
UbcE2H | DRSC18221 | -0.3
ben | DRSC20310 | -0.5
ben | DRSC21261 | -0.4
CG13377 | DRSC18622 | -0.4
CG13239 | DRSC11694 | -0.2
CG13197 | DRSC06322 | -0.4
CG6277 | DRSC16008 | 0
CG12877 | DRSC14565 | -0.1
CG33093 | DRSC15775 | -0.1
tbrd-2 | DRSC07020 | -0.2
Cyp6a13 | DRSC07375 | -0.4
CG31848 | DRSC01309 | 0
olf186-M | DRSC07657 | 0
Indy | DRSC10393 | -0.4
CG18473 | DRSC16381 | -0.2
CG11791 | DRSC14391 | 0.1
CG3397 | DRSC15487 | -0.4
vn | DRSC11408 | 0.2
CG13994 | DRSC02326 | -0.3
fos28F (retired record) | DRSC03391 | -0.3
CG13722 | DRSC08331 | -0.4
CG16974 | DRSC02551 | -0.1
Dp | DRSC07402 | 1.9
CG14053 | DRSC17908 | 0
Shal | DRSC09625 | -0.4
Shal | DRSC11283 | -0.3
RpS7 | DRSC15394 | 5
Gnf1 | DRSC12351 | 0.3
Tsc1 | DRSC16890 | -0.5
esg | DRSC03530 | 0
CG9356 | DRSC16476 | -0.4
tral | DRSC09779 | -0.5
obst-B | DRSC01987 | -0.2
Obp19c | DRSC20528 | 0
Rs1 | DRSC05945 | -0.3
lectin-37Db | DRSC03279 | -0.3
CG14110 | DRSC10113 | -0.4
CG14853 | DRSC14977 | -0.3
CG9517 (retired record) | DRSC20192 | -0.2
CG9517 (retired record) | DRSC20193 | -0.2

The list goes on, starting with the last 14 of the part before.
predicted target | dsRNA | z-score, replicate 1
RpS7 | DRSC15394 | 5
Gnf1 | DRSC12351 | 0.3
Tsc1 | DRSC16890 | -0.5
esg | DRSC03530 | 0
CG9356 | DRSC16476 | -0.4
tral | DRSC09779 | -0.5
obst-B | DRSC01987 | -0.2
Obp19c | DRSC20528 | 0
Rs1 | DRSC05945 | -0.3
lectin-37Db | DRSC03279 | -0.3
CG14110 | DRSC10113 | -0.4
CG14853 | DRSC14977 | -0.3
CG9517 (retired record) | DRSC20192 | -0.2
CG9517 (retired record) | DRSC20193 | -0.2
CG2233 | DRSC18217 | -0.4
CG12895 | DRSC06210 | -0.3
mEFTs | DRSC02953 | 0.2
Nfs1 | DRSC02154 | -0.1
CG14153 | DRSC10155 | -0.3
CCDC53 | DRSC03056 | -0.1
DIP-theta | DRSC00885 | -0.3
DIP-theta | DRSC02340 | -0.4
DIP-theta | DRSC02341 | 1.1
CG14760 | DRSC06495 | -0.1
CG42449 | DRSC18084 | -0.2
CG6329 | DRSC06976 | -0.3
CG5098 | DRSC06915 | -0.1
CG8097 | DRSC20079 | 0
CG3184 | DRSC18289 | -0.1
Pdh | DRSC11249 | -0.2
Cyp317a1 | DRSC07366 | -0.1
Obp47a | DRSC06255 | -0.1
Taf10b | DRSC00792 | 0.3
Ir25a | DRSC00462 | 0
CG13946 | DRSC00364 | -0.2
l(2)09851 | DRSC04858 | -0.1
barr | DRSC03488 | 0.5
CG11658 | DRSC09852 | -0.3
CG11635 + spaw | DRSC06075 | -0.4
ClC-c | DRSC10499 | -0.4
Sh | DRSC19214 | -0.2
Sh | DRSC19220 | -0.4
Sh | DRSC19785 | 0.3
Sh | DRSC20055 | -0.4
CG31784 | DRSC01574 | -0.2
Smg5 | DRSC03124 | 0.6
lqf | DRSC11363 | -0.5
CG5958 | DRSC02915 | -0.3
mthl2 | DRSC10287 | -0.4
CG13766 | DRSC02271 | -0.3
mex1 | DRSC11368 | -0.4
CG8159 | DRSC16392 | -0.3
CG2100 | DRSC12303 | -0.3
Gcn5 | DRSC11248 | 0.4
CG12511 | DRSC02171 | -0.1
Polr2H | DRSC11642 | 2.7
sav | DRSC14681 | -0.6
sav | DRSC14682 | -0.7
del | DRSC03170 | -0.2
Tdrd3 | DRSC10016 | 0.1
CG8138 | DRSC16386 | -0.3
mRpL13 | DRSC02076 | 1.1
CG14983 | DRSC08441 | -0.3
CG9458 | DRSC16495 | -0.5
CG14840 | DRSC14964 | 0
